This note sets out measurements from PubChem BioAssay AID2685 (National Center for Advancing Translational Sciences (NCATS), 2010).

A short description of the experiment: qHTS Assay for Lipid Storage Modulators in Drosophila S3 Cells.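 For cell number change: cells counted by Cell Tracker Red CMTPX staining in the red channel.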 Particulars: BODIPY lipid droplet fluorescence, 18-24 h; for cell number change: measured here: cell count max response, cells fed with added oleic acid. The gist of the method: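 Laser-scanning cytometry quantifies lipid droplet accumulation (500–530 nm total intensity; droplet/cell object ratio) in oleic acid-fed (400 uM added) Drosophila S3 cells treated with a concentration series. 20 uM Triacsin C defined 100% inhibition.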

The mark [1] stands for this setting: measured here: lipid fluorescence (Fed channel) AC50, cells fed with added oleic acid.
The mark [2] stands for this setting: measured here: cell number channel AC50, cells fed with added oleic acid.

Molecules are shown by their SMILES. The list shows a part of the results. Further columns of the screen follow, without active or inactive calls. Most of these compounds were active or inconclusive in the main read-out, so they are no random draw. Potencies come from curve fits of mixed quality, noted in brackets.

As for `Cc1cccc(NC(=O)CNC(=O)C(NC(=O)Cc2ccccc2)C(C)C)c1C` (stereo not given), the cell number change is -4.81%. For the same molecule, the half-maximal activity concentration (AC50) under setting [1] is 1.3 µM [rising, partial curve]. Regarding `CC(NC(=O)COc1ccc(/C=N/NC(=O)C(=O)Nc2ccccc2Br)cc1)c1ccccc1` (stereo not given), the cell number change was -14.6%. Further, the half-maximal activity concentration (AC50) under setting [2] was 0.00461 µM [rising, full curve, poor fit]. Also, the half-maximal activity concentration (AC50) under setting [1] was 0.164 µM [rising, full curve, poor fit].

In the case of `CC(Sc1nnc(-c2ccncc2)n1C)C(=O)Nc1ccc(N2CCOCC2)cc1` (stereo not given), the cell number change is -50.2%. Also, under setting [2], the AC50 was 25.9 µM [falling, partial curve, poor fit]. For the same molecule, the concentration at half-maximal activity (AC50) under setting [1] is 32.6 µM [falling, partial curve, poor fit].

In the case of `CC(C)(/C=N/O)/[N+]([O-])=C/c1ccccc1`, the cell number change was -43.3%. `Cc1ccc2cc3cc(C(=O)N4CCN(C(=O)c5ccco5)CC4)sc3nc2c1`: the concentration at half-maximal activity (AC50) is, setting by setting: under setting [2], 2.59 µM [rising, partial curve]; under setting [1], 2.91 µM [rising, partial curve]. On to `O=C(CN(C(=O)c1csnn1)c1ccccc1Cl)NCCc1ccccc1`, for which the cell number change was determined as 2.56%. Besides, the AC50 under setting [1] was 29.1 µM [falling, single point]. Take `CCn1ccc(C(=O)Nc2ccc(N(C)C(C)=O)cc2)n1`: the cell number change stood at 8.63%. In addition, under setting [1], the AC50 was 0.092 µM [rising, full curve, poor fit]. As for `CC(O)/C=C/c1cccc[n+]1C` (stereo not given), the cell number change came out at 24.5%. Moreover, the AC50 under setting [2] is 6.51 µM [falling, single point]. Under setting [1], the concentration at half-maximal activity (AC50) is 6.51 µM [falling, single point]. `CC(C)(C)C1CCC(=NNC(=O)C(=O)NCc2ccco2)CC1` (stereo not given): the cell number change is -46.4%. In the case of `CCOC(=O)C(=O)N1CCC(C(=O)OC)CC1`, the cell number change is -23.9%. Also, the AC50 under setting [2] is 6.51 µM [falling, single point]. For the same molecule, the half-maximal activity concentration (AC50) under setting [1] was 1.16 µM [falling, full curve]. As to `O=C(NCCCc1ccccc1)C(=O)NCC1OCCN1S(=O)(=O)c1ccc(F)cc1` (stereo not given), the cell number change worked out at 15.1%. Further, under setting [1], the AC50 is 18.4 µM [rising, single point]. Take `Cc1ccoc1C(=O)N1CCN(C(=O)c2occc2C)CC1`: the cell number change was 18.5%.

Regarding `COc1ccc(CC(=O)N(CCC2=CCCCC2)c2c(N)n(Cc3ccccc3)c(=O)[nH]c2=O)cc1OC`, the cell number change is -30.3%. Also, the half-maximal activity concentration (AC50) under setting [2] was 23.1 µM [falling, partial curve]. As to `O=C(/C=C\Nc1ccc(S(=O)(=O)Nc2ncccn2)cc1)c1ccccc1`, the cell number change was -24.9%. In addition, under setting [1], the AC50 was 0.206 µM [falling, full curve]. On to `Nc1nc(N)nc(-c2cc(C(F)(F)F)ccc2Cl)n1`, for which the cell number change was 14%. The AC50 under setting [1] was 2.06 µM [rising, single point].

On to `CCc1ccc(OCC(=O)N/N=C(\C)c2ccc3c(c2)OCCO3)cc1`, for which the cell number change amounted to 10.5%. Besides, the half-maximal activity concentration (AC50) under setting [1] is 5.17 µM [rising, partial curve]. Take `O=Cc1cccn1-c1cccnc1`: the cell number change is -5.45%. Besides, under setting [2], the half-maximal activity concentration (AC50) is 0.00651 µM [falling, full curve, poor fit]. With `COc1ccc(N(CC(=O)NCc2ccc(C)cc2)S(=O)(=O)c2c(C)noc2C)cc1`, the cell number change is 9.67%. Moreover, the AC50 under setting [1] is 23.1 µM [rising, partial curve]. Turning to `c1cncc(CNc2ncnc3ccc(-c4ccco4)cc23)c1`, the cell number change is -9.31%.

On to `NC(=O)c1ccc(NCCc2ccccc2)c([N+](=O)[O-])c1`, for which the cell number change was -37.6%. For the same molecule, the concentration at half-maximal activity (AC50) under setting [1] was 6.31 µM [falling, single point]. As for `COC(=O)c1ccc(C(=O)OC)c(NC(=S)N2CCN(c3cc(Cl)ccc3C)CC2)c1`, the cell number change was 17.4%. Under setting [1], the AC50 was 5.17 µM [rising, partial curve, poor fit].

In the case of `O=C(c1ccc2ccccc2c1)C1CCCN(C(=O)c2cccnc2)C1` (stereo not given), the cell number change is -6.07%. The AC50 under setting [1] was 3.26 µM [rising, partial curve, poor fit]. In the case of `CC(C)(C)n1nnnc1CN(Cc1ccco1)Cc1cc2cc3c(cc2[nH]c1=O)OCO3`, under setting [2], the AC50 was 2.91 µM [rising, partial curve]. `CCCn1c(C(C)Nc2nc(-c3cc(Cl)c(N)c(Cl)c3)cs2)nc2cc(Cl)c(N3CCCCC3)cc21` (stereo not given): the cell number change came out at 22.7%. The AC50 under setting [1] is 18.4 µM [rising, partial curve]. Turning to `CN(C)CC(O)COC(c1ccccc1)c1ccccc1` (stereo not given), the cell number change was 24.7%. Moreover, the AC50 under setting [2] is 0.00461 µM [falling, full curve, poor fit]. Regarding `COc1ccc(OC)c(CCNC(=O)Cc2ccc(NC3=NC4CS(=O)(=O)CC4S3)cc2)c1` (stereo not given), the cell number change was 18.2%. For the same molecule, the AC50 under setting [1] is 29.1 µM [rising, single point].

As for `CC(C)=CC(=O)OCC(=O)Nc1ccc(SC(F)F)cc1`, the cell number change was -14%. Further, the AC50 under setting [1] was 5.8 µM [falling, full curve, poor fit]. Turning to `Cc1ccc(S(=O)(=O)N(CCCO)CC(O)CON=C2c3ccccc3-c3ccccc32)cc1` (stereo not given), the cell number change was -16.2%. For the same molecule, under setting [1], the half-maximal activity concentration (AC50) was 29.1 µM [falling, single point]. For `COc1ccc(C(=O)C2CCCN(Cc3ccc4c(c3)OCCO4)C2)cc1F` (stereo not given), the cell number change amounted to 20.8%. The half-maximal activity concentration (AC50) under setting [1] is 2.59 µM [rising, partial curve, poor fit]. Regarding `COCCn1c(=N)c(S(=O)(=O)c2ccc(Br)cc2)cc2c(=O)n3ccccc3nc21`, the cell number change is 14.5%. Under setting [1], the concentration at half-maximal activity (AC50) is 29.1 µM [rising, single point]. Consider `COc1cccc(N(C(=O)c2csnn2)C(C(=O)NC2CCCC2)c2ccccc2)c1` (stereo not given), for which the cell number change stood at 25.6%. On to `CCN1CN(Cc2ccco2)CNC1=S`, for which the concentration at half-maximal activity (AC50) was 1.64 µM [falling, partial curve] under setting [2] and 4.61 µM [falling, single point] under setting [1]. Take `O=C(Nc1ccc(F)c(F)c1)C1CCN(S(=O)(=O)c2cccs2)CC1`: the cell number change is -20.2%. Moreover, the AC50 under setting [1] is 0.231 µM [falling, full curve]. Take `COCCn1nnnc1C(CC(C)C)N1CCN(c2cccc(OC)c2)CC1` (stereo not given): the cell number change came to 36.5%. In addition, the AC50 under setting [2] was 18.4 µM [rising, single point].

Take `COc1ccc(C(C(=O)NC2CCCC2)N(C(=O)c2ccco2)c2ccccc2C(C)=O)cc1OC` (stereo not given): the cell number change is -10.3%. Also, the half-maximal activity concentration (AC50) under setting [1] is 5.8 µM [falling, partial curve].

For `Cn1c(Cc2ccccc2)nnc1SCc1nc2ccccc2c(=O)[nH]1`, the half-maximal activity concentration (AC50) is 1.3 µM [rising, partial curve] under setting [2] and 0.58 µM [rising, full curve] under setting [1]. Regarding `CCN(CC)C(=O)c1[nH]cnc1C(=O)NCCCCCNC(=O)OC(C)(C)C`, the cell number change was found to be 5.54%. Besides, under setting [1], the concentration at half-maximal activity (AC50) was 29.1 µM [rising, single point]. For the molecule `COc1cc(N)ccc1C(=O)O`, the cell number change was -5.98%. Moreover, under setting [2], the AC50 is 6.51 µM [falling, single point]. In addition, under setting [1], the AC50 was 5.8 µM [falling, single point].

For `NS(=O)(=O)c1ccc(NC(=O)/C(=C/c2ccncc2)NC(=O)c2ccccc2)cc1`, the cell number change was -0.451%. On the same count and under the same terms, the same measure for `O=C(Nc1cc(-c2ccccc2)cs1)c1ccco1`: -19.7%.

In the case of `CC(=O)c1cccc(CN2CCCCC2C(=O)Nc2ccc(Oc3ccccc3)nc2)c1` (stereo not given), the cell number change was found to be 2.79%. Also, under setting [1], the AC50 was 3.66 µM [falling, single point].

`Cc1cc(N2CCN(C)CC2)nc2ccc(NC(=O)CCC(=O)NCCCOC(C)C)cc12`: the cell number change turned out to be 6.14%. In addition, under setting [1], the AC50 was 29.1 µM [rising, single point]. For the molecule `COc1ccccc1NC(=O)N1CCCC1C(=O)NCCc1ccccc1` (stereo not given), the cell number change stood at 0.525%. Under setting [1], the AC50 was 29.1 µM [falling, single point].

Turning to `CCOC(=O)C1CCCN(C2=NC(=O)/C(=C/c3ccc(OC)cc3)S2)C1` (stereo not given), the AC50 under setting [1] is 0.651 µM [falling, full curve]. On to `COc1cccc(/C=C2/Sc3ccc(C(=O)NCCN4CCCC4)cc3NC2=O)c1`, for which the cell number change was found to be 9.56%. Besides, the AC50 under setting [2] was 2.59 µM [rising, partial curve]. In addition, the AC50 under setting [1] is 6.51 µM [rising, single point].

On to `Cc1cccc(C(=O)N(c2ccccn2)C(C)c2ccco2)c1` (stereo not given), for which the cell number change is -13.7%. Consider `CCOC(=O)Nc1ccc2c(c1)N(C(=O)CN)c1ccccc1CC2`, for which the cell number change is 3.86%. For the same molecule, the AC50 under setting [1] was 29.1 µM [falling, single point].

Consider `O=C(Nc1ccc(F)cc1F)c1cccn1-c1ncc(C(F)(F)F)cc1Cl`, for which the cell number change worked out at 21%. Under setting [2], the half-maximal activity concentration (AC50) was 7.31 µM [rising, partial curve, poor fit]. Consider `Cc1ccc(NC(=O)NCc2ccncc2)cc1Cl`, for which the cell number change is -1.19%. The half-maximal activity concentration (AC50) under setting [2] is 6.51 µM [falling, partial curve, poor fit]. The AC50 under setting [1] is 6.51 µM [falling, partial curve, poor fit]. For `NC(=O)c1ccc(NC(=O)CCC(=O)c2cccs2)cc1`, the cell number change was determined as 5.98%. Under setting [1], the AC50 was 8.2 µM [falling, partial curve]. As for `Cc1oc(-c2cccc(Cl)c2)nc1CS(=O)(=O)CC(=O)NCCCN1CCOCC1`, the cell number change was found to be 13%. In addition, the AC50 under setting [1] was 29.1 µM [rising, single point]. `Cn1c(SCC(=O)c2ccc(-c3ccccc3)cc2)nnc1-c1ccco1`: the AC50 under setting [1] was 0.103 µM [falling, full curve, poor fit]. With `CC1(C)Cc2c(sc3ncn(N)c(=N)c23)CO1`, the cell number change is -10.5%.

Consider `CCOC(=O)NC(=O)/C(C#N)=C\NNc1ncc(C(F)(F)F)cc1Cl`, for which the cell number change is -29.7%. Further, the AC50 under setting [1] is 6.51 µM [rising, single point]. In the case of `CC(C)CC(c1nnnn1Cc1ccco1)N1CCN(c2cccc(Cl)c2)CC1` (stereo not given), the cell number change was -33%. In addition, the half-maximal activity concentration (AC50) under setting [2] was 20.6 µM [falling, partial curve, poor fit].

As for `O=S(=O)(c1ccccc1)N1CCN(c2ncnc3scc(-c4ccccc4)c23)CC1`, the cell number change stood at 20.2%. Still for that read-out and setting: the same measure for `Cc1ccc(S(=O)(=O)NCCNC(=O)c2nonc2N)cc1`: 11.3%. With `Cc1ccc(-c2nc3ncccn3c2NC(=O)C2CC2)cc1`, the cell number change was -7.69%. The AC50 under setting [1] is 0.00651 µM [falling, full curve, poor fit]. In the case of `COCCNC(=O)/C(C#N)=C/c1cc(C(C)C)c(OC)cc1C`, the cell number change is -42.3%. Also, the AC50 under setting [2] was 16.4 µM [falling, single point]. For the same molecule, the concentration at half-maximal activity (AC50) under setting [1] is 20.6 µM [falling, partial curve, poor fit]. As to `O=C1CC(/C=C/c2ccc(Cl)cc2)=Nc2ccccc2N1`, the cell number change was determined as 45.9%. In addition, the half-maximal activity concentration (AC50) under setting [2] is 2.06 µM [rising, full curve]. Moreover, the AC50 under setting [1] was 2.91 µM [rising, partial curve].
